B1: Q8BVN8 (protein, UniProt Q8BVN8 1-258, looked up)
chain: MIPPADSLLKYDTPVLVSRNTEKRSPTARPLKVTIQQPGPSSTSPQPPKAKLPSTSCVPDPTKQAEEILNAILPPREWVEDTQLWIQQVSSTPSTRMDVVHLQEQLDLKLQQRQARETGICPVRRELYSQCFDELIREVTINCAERGLLLLRVRDEIHMTIAAYQTLYESSVAFGMRKALQAEQGKSDMERKITELETEKRDLERQVNEQKAKCEATEKRESERRQVEEKKHNEEIQFLKRTNQQLKAQLEGIIAPKK
modifications: full-length
B2: Q9D964 (protein, UniProt Q9D964 1-423, looked up)
chain: MLRVRCLRGGSRGAEAVHYIGSRLGGSLTGWVQRTFQSTQAATASSRNSCAAEDKATHPLPKDCPVSSYNEWDPLEEVIVGRAENACVPPFTVEVKANTYEKYWPFYQKNGGLYFPKDHLKKAVAEVEEMCNILSMEGVTVRRPDPIDWSLKYKTPDFESTGLYSAMPRDILMVVGNEIIEAPMAWRSRFFEYRAYRSIIKDYFHRGAKWTTAPKPTMADELYDQNYPIHSVEDRHKLAAQGKFVTTEFEPCFDAADFIRAGRDIFAQRSQVTNYLGIEWMRRHLAPDYRVHIISFKDPNPMHIDATFNIIGPGLVLSNPDRPCHQIDLFKKAGWTIVTPPTPVIPDDHPLWMSSKWLSMNVLMLDEKRVMVDANEVPIQKMFEKLGISTIKVNIRNANSLGGGFHCWTCDVRRRGTLQSYFD
modifications: full-length
B3: Q6GQT1 (protein, UniProt Q6GQT1 1-1474, looked up)
chain: MGKRWLPSLALLPLPPPLLLLLLLLLPTNASAPQKPIYMVMVPSLLHAGTPEKGCLLFNHLNETVTVKVSMESVRGNQSLFTDLVVDKDLFHCASFIVPQSSSNEVMFLTVQVKGPTHEFRRRSTVLIKTKESLVFAQTDKPIYKPGQMVRFRVVSLDENFHPLNELIPLLYIQDSKKNRIAQWQNFRLEGGLKQLSFPLSSEPTQGSYKVVIRTESGRTVEHPFSVKEFVLPKFEVKVAVPETITILEEEMNVSVCGIYTYGKPVPGHVTVNICRKYSNPSSCFGEESLAFCEKFSQQLDGRGCFSQLVKTKSFQLKRQEYEMQLDVNAKIQEEGTGVEETGKGLTKITRTITKLSFVNVDTHFRQGIPFVGQVLLVDGRGTPIPYEMIFIGADEANQNINTTTDKNGLARFSINTDDIMGTSLTVRAKYKDSNVCYGFRWLTEENVEAWHTANAVFSPSRSFVHLESLPYKLRCEQTLAVQAHYILNDEAVLERKELVFYYLMMAKGGIVRAGTHVLPVTQGHKKGHFSILISMETDLAPVARLVLYTILPNGEVVGDTVKYEIEKCLANKVDLVFHPNIGLPATRAFLSVMASPQSLCGLRAVDQSVLLTKPEAELSASLVYDLLPVKDLTGFPKGVNQQEEDTNGCLKQNDTYINGILYSPVQNTNEEDMYGFLKDMGLKVFTNLNIRKPKVCERLGVNKIPAAYHLVSQGHMDAFLESSESPTETTRSYFPETWIWDLVIVDSTGVAEMEVTVPDTITEWKAGAFCLSNDTGLGLSPVIDFQAFQPFFVDLTMPYSVIRGEAFTLKATVLNYLQTCIRVGVQLEASPDFLATPEEKEQKSHCICMNERHTMSWAVIPKSLGNVNFTVSAEALDSKELCRNEVPVVPERGKKDTIIKSLLVEPEGLENEVTFNSLLCPTGAEVSEQISLKLPSDVVEESARASVTVLGDILGSAMQNTQDLLKMPYGCGEQNMVLFAPNIYVLDYLNETEQLTQEIKTKAITYLNTGYQRQLNYKHRDGSYSTFGDKPGRSHANTWLTAFVLKSFAQARRYIFIDESHITQALTWLSQQQKDNGCFRSSGSLLNNAMKGGVEDEVTLSAYITIALLEMSLPVTHPVVRNALFCLDTAWKSARRGASGNHVYTKALLAYAFALAGNQDTKKEILKSLDEEAVKEDNSVHWTRAQKPRVPADLWYQPQAPSAEVEMTAYVLLAYLTTELVPTREDLTAAMLIVKWLTKQQNSHGGFSSTQDTVVALHALSKYGAATFTRAKKAAHVTIQSSGAFYTKFQVNNDNQLLLQRVTLPTVPGDYTAKVAGEGCVYLQTSLKYSVLPREKEFPFALVVQTLPGTCEDLKAHTTFQISLNISYIGSRSDSNMAIADVKMVSGFIPLKPTVKMLERSVHVSRTEVSNNHVLIYLDKVSNQMLTLFFMVQQDIPVRDLKPAIVKVYDYYEKDEFAVAKYSAPCSAGYGNA
modifications: full-length
B4: P01796 (protein, UniProt P01796 1-113, looked up)
chain: EVKLEESGGGLVQPGGSMKLSCVASGFTFSNYWMNWVRQSPEKGLEWVAEIRLKSHNYATHYAESVKGRFTISRDDSKSSVYLQMNNLRAEDTGIYYCTTGFAYWGQGTLVTV
modifications: full-length
B5: P01868 (protein, UniProt P01868 1-324, looked up)
chain: AKTTPPSVYPLAPGSAAQTNSMVTLGCLVKGYFPEPVTVTWNSGSLSSGVHTFPAVLQSDLYTLSSSVTVPSSPRPSETVTCNVAHPASSTKVDKKIVPRDCGCKPCICTVPEVSSVFIFPPKPKDVLTITLTPKVTCVVVDISKDDPEVQFSWFVDDVEVHTAQTQPREEQFNSTFRSVSELPIMHQDWLNGKEFKCRVNSAAFPAPIEKTISKTKGRPKAPQVYTIPPPKEQMAKDKVSLTCMITDFFPEDITVEWQWNGQPAENYKNTQPIMNTNGSYFVYSKLNVQKSNWEAGNTFTCSVLHEGLHNHHTEKSLSHSPGK
modifications: full-length
B6: P01867 (protein, UniProt P01867 1-404, looked up)
chain: KTTPPSVYPLAPGCGDTTGSSVTLGCLVKGYFPESVTVTWNSGSLSSSVHTFPALLQSGLYTMSSSVTVPSSTWPSQTVTCSVAHPASSTTVDKKLEPSGPISTINPCPPCKECHKCPAPNLEGGPSVFIFPPNIKDVLMISLTPKVTCVVVDVSEDDPDVQISWFVNNVEVHTAQTQTHREDYNSTIRVVSTLPIQHQDWMSGKEFKCKVNNKDLPSPIERTISKIKGLVRAPQVYILPPPAEQLSRKDVSLTCLVVGFNPGDISVEWTSNGHTEENYKDTAPVLDSDGSYFIYSKLNMKTSKWEKTDSFSCNVRHEGLKNYYLKKTISRSPGLDLDDICAEAKDGELDGLWTTITIFISLFLLSVCYSASVTLFKVKWIFSSVVELKQKISPDYRNMIGQGA
modifications: full-length
B7: P01863 (protein, UniProt P01863 1-330, looked up)
chain: AKTTAPSVYPLAPVCGDTTGSSVTLGCLVKGYFPEPVTLTWNSGSLSSGVHTFPAVLQSDLYTLSSSVTVTSSTWPSQSITCNVAHPASSTKVDKKIEPRGPTIKPCPPCKCPAPNLLGGPSVFIFPPKIKDVLMISLSPIVTCVVVDVSEDDPDVQISWFVNNVEVHTAQTQTHREDYNSTLRVVSALPIQHQDWMSGKEFKCKVNNKDLPAPIERTISKPKGSVRAPQVYVLPPPEEEMTKKQVTLTCMVTDFMPEDIYVEWTNNGKTELNYKNTEPVLDSDGSYFMYSKLRVEKKNWVERNSYSCSVVHEGLHNHHTTKSFSRTPGK
modifications: full-length
B8: P50247 (protein, UniProt P50247 1-432, looked up)
chain: MSDKLPYKVADIGLAAWGRKALDIAENEMPGLMRMREMYSASKPLKGARIAGCLHMTVETAVLIETLVALGAEVRWSSCNIFSTQDHAAAAIAKAGIPVFAWKGETDEEYLWCIEQTLHFKDGPLNMILDDGGDLTNLIHTKYPQLLSGIRGISEETTTGVHNLYKMMSNGILKVPAINVNDSVTKSKFDNLYGCRESLIDGIKRATDVMIAGKVAVVAGYGDVGKGCAQALRGFGARVIITEIDPINALQAAMEGYEVTTMDEACKEGNIFVTTTGCVDIILGRHFEQMKDDAIVCNIGHFDVEIDVKWLNENAVEKVNIKPQVDRYWLKNGRRIILLAEGRLVNLGCAMGHPSFVMSNSFTNQVMAQIELWTHPDKYPVGVHFLPKKLDEAVAEAHLGKLNVKLTKLTEKQAQYLGMPINGPFKPDHYRY
modifications: full-length

System: CA19-9 modified proteins
Assay: CA19-9 IP/MS (iTRAQ) of organoid conditioned media after Dox treatment
Set-up: species or system mouse
Conditions: for 17 0H 5B1 (CA19-9 IP/MS relative abundance) / 17 0H NS19 (CA19-9 IP/MS relative abundance) / 17 8H 5B1 (CA19-9 IP/MS relative abundance) / 17 8H NS19 (CA19-9 IP/MS relative abundance): A217 organoid conditioned media; for 17 0H NS19 (CA19-9 IP/MS relative abundance) / 17 8H NS19 (CA19-9 IP/MS relative abundance) / 20 0H NS19 (CA19-9 IP/MS relative abundance) / 20 8H NS19 (CA19-9 IP/MS relative abundance): NS19-9; for 17 0H NS19 (CA19-9 IP/MS relative abundance): every printed value in this column is 1; for 20 0H 5B1 (CA19-9 IP/MS relative abundance) / 20 0H NS19 (CA19-9 IP/MS relative abundance) / 20 8H 5B1 (CA19-9 IP/MS relative abundance) / 20 8H NS19 (CA19-9 IP/MS relative abundance): A220 organoid conditioned media; for 17 0H NS19 / 17 8H 5B1 / 17 8H NS19 / 20 0H 5B1: CA19-9 IP/MS relative abundance; for 17 0H NS19 / 17 8H 5B1 / 17 8H NS19: A217 (genetic negative) organoid conditioned media; for 17 0H NS19 / 20 0H 5B1: 0H (before treatment); for 17 0H NS19 / 17 8H NS19: IP with NS19-9; for 17 0H NS19: reference channel = 1; for 17 8H 5B1 / 17 8H NS19: after 8 hours; for 17 8H 5B1 / 20 0H 5B1: IP with 5B1; for 20 0H 5B1: A220 (C;R^LSL;F) organoid conditioned media

Molecule	17 0H 5B1 (CA19-9 IP/MS relative abundance)	17 0H NS19 (CA19-9 IP/MS relative abundance)	17 8H 5B1 (CA19-9 IP/MS relative abundance)	17 8H NS19 (CA19-9 IP/MS relative abundance)	20 0H 5B1 (CA19-9 IP/MS relative abundance)	20 0H NS19 (CA19-9 IP/MS relative abundance)	20 8H 5B1 (CA19-9 IP/MS relative abundance)	20 8H NS19 (CA19-9 IP/MS relative abundance)	17 0H NS19	17 8H 5B1	17 8H NS19	20 0H 5B1
B1	4.731	1	4.234	0.656	4.175	1.352	4.589	1.133	–	–	–	–
B2	1.699	1	1.883	0.442	1.674	0.456	1.752	0.518	–	–	–	–
B3	1.798	1	1.95	0.494	1.105	0.154	1.629	0.214	–	–	–	–
B4	–	–	–	–	–	–	–	–	1	0.164	0.872	0.159
B5	–	–	–	–	–	–	–	–	1	0.094	1.113	0.098
B6	–	–	–	–	–	–	–	–	1	0.439	1.002	0.388
B7	–	–	–	–	–	–	–	–	1	0.46	0.984	0.417
B8	–	–	–	–	–	–	–	–	1	7.244	0.536	5.616

Reference: US12378320B2, “Methods for treating pancreatitis” (Cold Spring Harbor Laboratory, priority 2018, dated 2025)
